Assay results reported in the supplement of paper PMC3334620.
Whole data set: some 33,000 sequences, median “E-score (-0.5 to 0.5)” near -0.016, cut for the highest 2% near 0.3. The list shows a part of the results.

The sequences below were run against T1, Yer184c (UniProt P39961) (assay: PBM E-score (8-mer binding enrichment) (E-score (-0.5 to 0.5)); higher = stronger / more preferred TF binding). Conditions: protein concentration: 100 nM; construct: GST-full length.
T1 sequence: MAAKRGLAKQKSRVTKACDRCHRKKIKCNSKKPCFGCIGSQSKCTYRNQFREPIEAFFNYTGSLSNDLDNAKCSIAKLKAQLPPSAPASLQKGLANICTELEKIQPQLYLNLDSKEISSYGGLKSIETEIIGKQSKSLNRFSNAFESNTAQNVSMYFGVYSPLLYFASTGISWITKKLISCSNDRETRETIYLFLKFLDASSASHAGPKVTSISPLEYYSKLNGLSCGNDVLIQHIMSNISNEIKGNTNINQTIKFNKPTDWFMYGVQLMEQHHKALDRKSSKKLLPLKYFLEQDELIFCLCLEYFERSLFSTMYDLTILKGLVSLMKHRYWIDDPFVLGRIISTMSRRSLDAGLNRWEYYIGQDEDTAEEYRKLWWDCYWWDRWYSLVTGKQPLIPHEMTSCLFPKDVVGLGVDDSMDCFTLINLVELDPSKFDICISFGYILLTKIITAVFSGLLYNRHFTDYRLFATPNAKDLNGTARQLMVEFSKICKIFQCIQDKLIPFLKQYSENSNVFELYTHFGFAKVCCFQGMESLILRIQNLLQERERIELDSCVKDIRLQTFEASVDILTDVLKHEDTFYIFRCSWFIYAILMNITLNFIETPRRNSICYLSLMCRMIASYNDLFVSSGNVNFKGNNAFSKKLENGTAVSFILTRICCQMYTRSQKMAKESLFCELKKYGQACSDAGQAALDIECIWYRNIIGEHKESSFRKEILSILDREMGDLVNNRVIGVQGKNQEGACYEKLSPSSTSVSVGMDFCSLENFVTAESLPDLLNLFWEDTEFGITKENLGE
Experimental: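 Universal 'all 10-mer' protein binding microarrays (Agilent AMADID 015681) probed with GST-tagged S. cerevisiae TFs (full-length or DBD) made by in vitro transcription/translation (PURExpress), about 100-200 nM. Bound TF was detected with fluorescent anti-GST. Each ungapped 8-mer (which stands for itself and its reverse complement) is scored by the PBM enrichment score (E-score), a modified Wilcoxon-Mann-Whitney statistic from -0.5 to +0.5, computed with the Universal PBM Analysis Suite. Scale: above 0.35 generally sequence-specific binding.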

Sequence | PBM E-score
ACTTTATG | 0.0373
GATGCCAA | -0.105
CGTGCTCA | 0.091
CCACGACG | 0.0318
ACAACAGA | -0.0576
CGTACTTC | 0.0247
ATAGGCAG | 0.0342
TACCCGAA | 0.152
CGCACCTA | -0.0756
ACATATCG | -0.136
GAGGTTCA | 0.112
CATTTCTC | 0.00217
TGAGAAAA | 0.0785
GCACTGCC | -0.0143
AACCCCCA | -0.269
AAACCGAT | 0.0874
CAGCGGCC | -0.0548
CGTTATAG | -0.00732
ATGTGGTG | 0.0296
GCGGCTCA | 0.2
CCCTGCGC | -0.231
AAACTATG | -0.141
ACGTTAAA | 0.12
TCGTGTCA | -0.0881
ACTGATTA | 0.00495

Sequence | PBM E-score
CGTTAAAG | 0.0703
CGTGCTTC | 0.102
CCACGTAG | -0.379
AAGACCAA | 0.052
AAGGGGCG | -0.4
GCGCTTCA | -0.0076
GAGACTGC | -0.127
ATCACCCC | -0.149
AACTTATC | 0.11
GCGCGTCC | -0.061
AGCCCAGA | -0.174
CTAAAAAC | -0.00322
CCTAGCCG | 0.155
AGGATCCT | 0.0958
CTGTACAG | 0.0889
CTTTGGGA | -0.0679
CGAAGCTA | 0.1
GCAACAAA | 0.185
CCGACAGA | 0.265
CGCCTCTA | -0.0607
CCCCACAA | -0.0876
ACATTACG | 0.0913
ATGCTTGC | -0.085
ACGACCAC | -0.0916
AGAGGCGC | -0.119

Sequence | PBM E-score
GGCTAGAA | 0.124
ACGCCCCT | -0.366
AGAGTGAA | 0.127
CGGCGCCC | 0.125
GAGCTCAA | 0.222
ATCGGGGA | -0.105
AGCGGATA | 0.0602
CGGCTCTC | -0.0248
CTAACAAG | 0.0319
ACGTTCCT | 0.0367
GGAATACA | 0.158
ACCAAGAG | -0.166
ATGTTAAG | 0.0135
ACGAGCTA | -0.0123
GAAATCCC | -0.0142
GGTCTGGA | -0.132
CTTCCACA | 0.0409
ATCGCCAC | -0.162
AGGATTAC | 0.012
CCTAAAAC | -0.106
TACTCATA | -0.0379
CAGGCGCC | -0.0332
GCCATAAC | -0.109
AAGCGCAC | -0.175
CTTGATAC | -0.0505

Sequence | PBM E-score
GAGCACTC | -0.0845
GGACACCA | -0.0551
AACATCTC | 0.0243
GCTCCAAC | -0.0068
GTAACCTA | 0.188
ACGATCAG | -0.113
CTGAGCCA | -0.257
TGAAAGCA | 0.0124
AACGAAAC | 0.0384
GGGCCCTA | -0.145
GGCGTCAC | -0.2
AAACTTTG | 0.184
CAACTAAA | 0.0514
AACGAGTT | -0.0437
CCCATTGA | -0.134
GCCATCAC | -0.171
ATGTATGA | 0.0211
GCACTCTA | -0.12
CGAGGCTA | 0.0172
CAAGTAAC | -0.0721
CAACCAGA | -0.0522
AGCCTTGG | -0.239
CCCAGAAG | -0.00752
AACTAGTA | -0.0163
AGAATACT | 0.147

Given as a markdown table: part of the list above

| Sequence | PBM E-score |
| --- | --- |
| AGAGGCGC | -0.119 |
| GGCTAGAA | 0.124 |
| ACGCCCCT | -0.366 |
| AGAGTGAA | 0.127 |
| CGGCGCCC | 0.125 |
| GAGCTCAA | 0.222 |
| ATCGGGGA | -0.105 |
| AGCGGATA | 0.0602 |
| CGGCTCTC | -0.0248 |
| CTAACAAG | 0.0319 |
| ACGTTCCT | 0.0367 |
| GGAATACA | 0.158 |
| ACCAAGAG | -0.166 |
| ATGTTAAG | 0.0135 |
| ACGAGCTA | -0.0123 |
| GAAATCCC | -0.0142 |
| GGTCTGGA | -0.132 |
| CTTCCACA | 0.0409 |
| ATCGCCAC | -0.162 |
| AGGATTAC | 0.012 |
| CCTAAAAC | -0.106 |
| TACTCATA | -0.0379 |
| CAGGCGCC | -0.0332 |
| GCCATAAC | -0.109 |
| AAGCGCAC | -0.175 |
| CTTGATAC | -0.0505 |
| GAGCACTC | -0.0845 |
| GGACACCA | -0.0551 |
| AACATCTC | 0.0243 |
| GCTCCAAC | -0.0068 |
| GTAACCTA | 0.188 |
| ACGATCAG | -0.113 |
| CTGAGCCA | -0.257 |
| TGAAAGCA | 0.0124 |
| AACGAAAC | 0.0384 |
| GGGCCCTA | -0.145 |
| GGCGTCAC | -0.2 |
| AAACTTTG | 0.184 |
| CAACTAAA | 0.0514 |
| AACGAGTT | -0.0437 |
| CCCATTGA | -0.134 |
| GCCATCAC | -0.171 |
| ATGTATGA | 0.0211 |
| GCACTCTA | -0.12 |
| CGAGGCTA | 0.0172 |
| CAAGTAAC | -0.0721 |
| CAACCAGA | -0.0522 |
| AGCCTTGG | -0.239 |

(listing goes on)

Sequence | PBM E-score
AAGTGTCC | 0.054
ACATAGGG | -0.274
GCTTTACA | 0.118
CGGATCAG | 0.224
GATAAACA | 0.104
CAACATCG | 0.0608
ACGGGTAT | 0.105
GGCAACTA | 0.102
AGTCAAAC | -0.0777
GCAAACAA | 0.131
AATTCGGA | 0.343
CTCGTTAA | -0.0488
GGCGTCCA | -0.109
CAACGTTG | 0.243
ATCTTTGC | 0.17
ACGTTTAA | 0.0701
CCCTCGAA | -0.337
GCAACTTA | 0.17
GTGCTAAA | 0.0711
ACCACTAC | -0.213
CATAGCCG | 0.298
AATGACCA | 0.0991
CGTGCACA | -0.147
AGTTCGAC | 0.0229
TCGGAAAA | 0.382

Sequence | PBM E-score
GCTCCGCA | 0.0792
ATGCATTC | 0.124
AGCCAACG | 0.0356
AGCGAACT | -0.2
GACATATC | 0.0297
CAGAACAA | 0.209
CCTCGAGC | -0.0425
CCCAGGAG | -0.333
CCAGGGCA | -0.272
ACGGGATA | 0.101
ATAAGGTC | -0.0447
AGTACTTA | -0.0328
GCATGACC | -0.175
GACCGTCA | -0.0487
TATGAATA | 0.0415
AGTACCTA | -0.0132
GTAAACAC | 0.156
AGTTAACA | 0.233
CACTTTCA | -0.0416
ATAGGGCA | -0.168
CCATACCG | -0.0159
AACAGCAT | -0.0933
ATGCCACA | -0.0312
GGAGGTAC | -0.191
CCCCATTC | -0.195

Sequence | PBM E-score
GAAACTGC | -0.0125
CGAGTTCC | 0.115
TAATCATA | 0.157
CCACCAGC | -0.108
GACGCCGA | 0.198
GCCGGGAC | 0.263
AGGAGCGG | -0.269
AAGGCCAC | -0.302
ACCAATAC | -0.112
TTAACAAA | 0.25
CGATACAA | 0.113
AGAGAGCA | -0.127
CACAAATA | 0.265
GCGTCGCA | -0.0328
AGGGTGCG | -0.222
CCGCGCGG | 0.386
CGGGTCCA | -0.171
ACAATACA | 0.108
GCCCGCTA | -0.0914
CGAATTAC | 0.145
TGATGACA | -0.0581
TCCCGCGA | 0.0597
